{
  "source": "patent US20150064287A1",
  "about": "“METHOD FOR TREATING ABNORMAL POLYGLUTAMINE-MEDIATED DISEASES” (NATIONAL TAIWAN NORMAL UNIVERSITY, priority 2013, published 2015)",
  "key": {"[1]": {"test_system": "reactive oxygen species (ROS)", "assay": "ROS analysis (CellROX Deep Red, flow cytometry) in 293 ATXN3/Q75-GFP cells", "type": "cell-based, human", "settings": "range over genipin, geniposide 500 nM, crocin 100 nM, extract 10 μg/mL; 814 without pretreatment; doxycycline and oxaliplatin 6 days"}, "ATXN3/Q75-GFP": {"test_system": "ATXN3/Q75-GFP", "assay": "ATXN3/Q75-GFP green fluorescence by flow cytometry", "type": "cell-based, human", "settings": "range over groups with or without pretreatment (genipin, geniposide 500 nM, crocin 100 nM, extract 10 μg/mL); doxycycline 6 days; no significant difference"}},
  "note": "Some of these results come from one statement about several compounds together. Some ranges recur; such a range may be that of the whole group of compounds.",
  "data": [
    {"smiles": "COC(=O)C1=CO[C@@H](O[C@@H]2O[C@H](CO)[C@@H](O)[C@H](O)[C@H]2O)[C@@H]2C(CO)=CC[C@H]12", "note": "[geniposide]", "values": [
      {"measurement": "ROS red fluorescence", "setting": "[1]", "result": "715-736"},
      {"measurement": "ATXN3/Q75-GFP fluorescence expression", "setting": "ATXN3/Q75-GFP", "result": "215-228"}
    ]}
  ]
}
